These are yes or no findings as the source states them, for the method shown. Binding seen in cells or lysates may run through a third protein. Here binding means that the protein was enriched with, or labelled near, the bait; the list need not be complete.

Sequences of proteins named here, by UniProt entry; tags and fusion partners are left off.
UniProt Q15648: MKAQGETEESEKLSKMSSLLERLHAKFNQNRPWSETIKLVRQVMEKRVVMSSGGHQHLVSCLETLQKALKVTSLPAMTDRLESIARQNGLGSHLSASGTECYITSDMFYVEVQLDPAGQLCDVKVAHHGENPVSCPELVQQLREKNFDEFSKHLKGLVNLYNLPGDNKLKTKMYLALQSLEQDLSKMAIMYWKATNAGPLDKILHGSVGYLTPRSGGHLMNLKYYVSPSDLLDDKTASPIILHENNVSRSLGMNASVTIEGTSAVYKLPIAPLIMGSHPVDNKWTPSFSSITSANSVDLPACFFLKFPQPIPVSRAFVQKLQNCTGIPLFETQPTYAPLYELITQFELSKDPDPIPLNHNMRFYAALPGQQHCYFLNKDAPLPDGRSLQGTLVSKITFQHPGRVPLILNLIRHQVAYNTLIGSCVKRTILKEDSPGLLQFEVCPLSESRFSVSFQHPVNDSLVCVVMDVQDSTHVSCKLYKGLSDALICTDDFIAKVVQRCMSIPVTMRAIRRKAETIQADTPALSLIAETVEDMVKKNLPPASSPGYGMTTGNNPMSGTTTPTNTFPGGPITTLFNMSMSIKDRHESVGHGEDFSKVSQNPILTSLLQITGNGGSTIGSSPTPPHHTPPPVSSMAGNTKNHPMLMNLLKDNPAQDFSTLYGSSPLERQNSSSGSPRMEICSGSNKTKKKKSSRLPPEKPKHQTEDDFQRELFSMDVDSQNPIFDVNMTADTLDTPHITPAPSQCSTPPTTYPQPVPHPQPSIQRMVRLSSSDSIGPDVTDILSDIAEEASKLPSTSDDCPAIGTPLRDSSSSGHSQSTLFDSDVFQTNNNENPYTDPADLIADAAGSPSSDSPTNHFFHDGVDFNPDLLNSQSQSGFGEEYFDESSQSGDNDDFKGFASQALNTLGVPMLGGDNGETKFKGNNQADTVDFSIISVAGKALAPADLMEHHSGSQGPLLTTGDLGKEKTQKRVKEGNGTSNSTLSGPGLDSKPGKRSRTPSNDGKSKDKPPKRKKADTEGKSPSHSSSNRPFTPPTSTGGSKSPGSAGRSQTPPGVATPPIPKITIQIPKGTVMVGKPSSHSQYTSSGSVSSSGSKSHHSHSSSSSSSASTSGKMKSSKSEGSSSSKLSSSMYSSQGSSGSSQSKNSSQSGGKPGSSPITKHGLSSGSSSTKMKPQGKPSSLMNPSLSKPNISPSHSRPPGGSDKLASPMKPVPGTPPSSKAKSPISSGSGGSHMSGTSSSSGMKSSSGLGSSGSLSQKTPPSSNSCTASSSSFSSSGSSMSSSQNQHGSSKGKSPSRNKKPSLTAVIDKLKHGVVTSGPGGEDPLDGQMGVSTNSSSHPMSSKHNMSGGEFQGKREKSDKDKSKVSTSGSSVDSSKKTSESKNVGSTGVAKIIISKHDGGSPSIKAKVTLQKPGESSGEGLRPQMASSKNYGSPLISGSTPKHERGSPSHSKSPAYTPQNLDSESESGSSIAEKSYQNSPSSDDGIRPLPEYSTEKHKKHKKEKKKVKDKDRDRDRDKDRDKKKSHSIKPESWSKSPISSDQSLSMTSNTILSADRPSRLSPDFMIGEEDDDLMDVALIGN

The assay addresses T1, human SAV1 overexpressed in 293 cells (bait of the SAV1 complex for mass spectrometry) (human) (UniProt Q9H4B6).
T1 sequence: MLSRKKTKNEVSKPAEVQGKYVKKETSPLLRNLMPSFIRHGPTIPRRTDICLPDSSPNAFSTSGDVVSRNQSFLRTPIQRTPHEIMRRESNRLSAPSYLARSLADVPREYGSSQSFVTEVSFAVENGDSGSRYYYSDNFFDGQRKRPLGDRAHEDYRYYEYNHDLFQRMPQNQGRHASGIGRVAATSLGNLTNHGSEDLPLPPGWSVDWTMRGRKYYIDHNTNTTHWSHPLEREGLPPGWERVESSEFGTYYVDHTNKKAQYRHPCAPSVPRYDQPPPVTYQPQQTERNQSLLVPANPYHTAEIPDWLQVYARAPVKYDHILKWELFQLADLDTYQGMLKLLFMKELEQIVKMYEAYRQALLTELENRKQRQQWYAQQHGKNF
Put plainly: affinity purification with mass spectrometry; SAV1 complex purified by immunoprecipitation from 293 cells overexpressing human SAV1 and/or human MST2; mass spectrometric analysis.

As to “Mediator complex subunit 1 (MED1) (from UniProt Q15648 1-1581)”, the binding entry is “binds”.

B1: PPARγ coactivator (PGC)-1β (protein, UniProt Q86YN6 1-1023)
chain: MAGNDCGALLDEELSSFFLNYLADTQGGGSGEEQLYADFPELDLSQLDASDFDSATCFGELQWCPENSETEPNQYSPDDSELFQIDSENEALLAELTKTLDDIPEDDVGLAAFPALDGGDALSCTSASPAPSSAPPSPAPEKPSAPAPEVDELSLLQKLLLATSYPTSSSDTQKEGTAWRQAGLRSKSQRPCVKADSTQDKKAPMMQSQSRSCTELHKHLTSAQCCLQDRGLQPPCLQSPRLPAKEDKEPGEDCPSPQPAPASPRDSLALGRADPGAPVSQEDMQAMVQLIRYMHTYCLPQRKLPPQTPEPLPKACSNPSQQVRSRPWSRHHSKASWAEFSILRELLAQDVLCDVSKPYRLATPVYASLTPRSRPRPPKDSQASPGRPSSVEEVRIAASPKSTGPRPSLRPLRLEVKREVRRPARLQQQEEEDEEEEEEEEEEEKEEEEEWGRKRPGRGLPWTKLGRKLESSVCPVRRSRRLNPELGPWLTFADEPLVPSEPQGALPSLCLAPKAYDVERELGSPTDEDSGQDQQLLRGPQIPALESPCESGCGDMDEDPSCPQLPPRDSPRCLMLALSQSDPTFGKKSFEQTLTVELCGTAGLTPPTTPPYKPTEEDPFKPDIKHSLGKEIALSLPSPEGLSLKATPGAAHKLPKKHPERSELLSHLRHATAQPASQAGQKRPFSCSFGDHDYCQVLRPEGVLQRKVLRSWEPSGVHLEDWPQQGAPWAEAQAPGREEDRSCDAGAPPKDSTLLRDHEIRASLTKHFGLLETALEEEDLASCKSPEYDTVFEDSSSSSGESSFLPEEEEEEGEEEEEDDEEEDSGVSPTCSDHCPYQSPPSKANRQLCSRSRSSSGSSPCHSWSPATRRNFRCESRGPCSDRTPSIRHARKRREKAIGEGRVVYIQNLSSDMSSRELKRRFEVFGEIEECEVLTRNRRGEKYGFITYRCSEHAALSLTKGAALRKRNEPSFQLSYGGLRHFCWPRYTDYDSNSEEALPASGKSKYEAMDFDSLLKEAQQSLH
For B1, the binding result was “binds”.

(Values after paper PMC3266932.)
